In PubChem BioAssay AID720504 (National Center for Advancing Translational Sciences (NCATS), 2013):
About 10,000 (2.8%) of roughly 360,000 compounds were called active. The shares of active, inactive and inconclusive entries below differ from those in the screen. Calls follow the shape of the dose curve; as a rule, active = well fitted inhibition curve with a large enough effect; inconclusive = small, poorly fitted or top-dose-only effect; inactive = flat fitted curve, though single readings scatter. Potencies beside an inconclusive call are fits to weak or partial responses and may not hold up.
% is scaled to controls: 0 for no effect and ±100 for the full control effect; potency is read from the fitted curve at half-maximal effect.
Also: nearly all actives have a fitted effect of over 65% in size.
For max response, negative = inhibition in this document: series mostly up to about 57 µM.

The chains behind the UniProt entries cited, without tags or fusion partners.
UniProt P53350, whole entry, looked up: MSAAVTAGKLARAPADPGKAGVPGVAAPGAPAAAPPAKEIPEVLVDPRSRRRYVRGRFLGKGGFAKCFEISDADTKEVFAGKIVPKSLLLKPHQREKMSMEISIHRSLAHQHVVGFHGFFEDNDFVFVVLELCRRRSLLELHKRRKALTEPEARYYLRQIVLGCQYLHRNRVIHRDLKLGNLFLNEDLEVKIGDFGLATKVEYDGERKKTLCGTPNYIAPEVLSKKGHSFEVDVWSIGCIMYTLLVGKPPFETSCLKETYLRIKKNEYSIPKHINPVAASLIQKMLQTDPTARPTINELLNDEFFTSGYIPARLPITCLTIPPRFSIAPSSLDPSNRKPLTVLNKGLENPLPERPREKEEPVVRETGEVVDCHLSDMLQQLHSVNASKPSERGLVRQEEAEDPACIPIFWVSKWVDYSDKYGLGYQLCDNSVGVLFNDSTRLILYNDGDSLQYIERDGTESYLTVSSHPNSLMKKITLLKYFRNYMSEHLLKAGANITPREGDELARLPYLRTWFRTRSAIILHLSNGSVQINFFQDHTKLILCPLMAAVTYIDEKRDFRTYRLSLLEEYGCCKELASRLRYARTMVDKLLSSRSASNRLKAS

These compounds were tested against Serine/threonine-protein kinase PLK1 (Homo sapiens) (UniProt P53350) (assay: qHTS for Inhibitors of PLK1-PDB (polo-like kinase 1 - polo-box domain): Primary Screen). Conditions: Plk1 PBD binding of FITC phosphopeptide, fluorescence polarization.
For `Nc1ccc2cc3ccccc3cc2c1`, the Potency was inconclusive: 8.44 µM [inhibitor, single point].
In the case of `COc1ccc(C2NC(=O)NC(c3ccccc3)=C2c2nc3ccccc3s2)cc1` (stereo unspecified), the max response, negative = inhibition is reported as inactive: -0.296%.
For `O=[N+]([O-])c1cc([N+](=O)[O-])c(Oc2cncc(Cl)c2)cc1NC1CCCCCCC1`, the Potency was inconclusive: 23.8 µM [inhibitor, single point].
In the case of `COc1ccc(CCNC(=O)c2cccc(S(=O)(=O)N3CCOCC3)c2)cc1OC`, the max response, negative = inhibition is reported as inactive: -5.73%.
For `CC(=O)c1c(N2CCN(c3ccccc3)CC2)nc(=S)n(-c2ccccc2)c1C`, the max response, negative = inhibition was inactive: -20.1%.
For `N#C/C(=C/c1cn(-c2ccccc2)nc1-c1cccc(S(=O)(=O)N2CCCC2)c1)C(=O)NCc1ccco1`, the Potency was inconclusive: 23.8 µM [inhibitor, full curve].
With `CCOc1ccc(-c2nn(-c3ccccc3)cc2/C=C2\SC(=S)N(C3CCS(=O)(=O)C3)C2=O)cc1` (stereo unspecified) the Potency was inconclusive: 26.7 µM [inhibitor, partial curve].
`O=C(CCSCc1ccccc1Cl)N1CCN(c2cccc(Cl)c2)CC1` was tested, and the max response, negative = inhibition was inactive: -2.6%.
For `Cc1c(C(=O)Nc2ccc(N3CCOCC3)cc2)oc2ccccc12`, the max response, negative = inhibition was inactive: -1.11%.
`CCOC(=O)N1CCN(C(=O)c2ccc(CS(=O)(=O)c3ccc(OC)cc3)o2)CC1` was tested, and the Potency was active: 26.7 µM.
For `COC(=O)C1CCN(C(=O)CSc2ccccc2)CC1`, the Potency was active: 21.2 µM.
In the case of `CC(C)CN(CCCNC(=O)CN1C(=O)COc2ccc(S(=O)(=O)N3CCCCCC3)cc21)CC(C)C`, the Potency is reported as inconclusive: 16.8 µM [inhibitor, single point].
With `COc1ccccc1C1CCN(Cc2cccc([N+](=O)[O-])c2)CC1` the max response, negative = inhibition was inactive: 3.41%.
With `Cc1ccc(S(=O)(=O)N2[C@@H](c3ccc(C(C)(C)C)cc3)C(C(=O)O)=CC[C@H]2c2ccc3c(c2)OCO3)cc1` the Potency was inconclusive: 23.8 µM [inhibitor, partial curve].
For `Oc1c(N=NC(=S)Nc2ccccc2F)c2ccccc2n1Cc1ccccc1F`, the max response, negative = inhibition was inactive: -0.817%.
In the case of `COc1cc2c(C#Cc3cccnc3)c(-c3ccsc3)oc(=O)c2cc1OC`, the max response, negative = inhibition is reported as inactive: -4.99%.
For `Cc1c(NC(=O)c2cc(-c3cccc(Cl)c3)on2)c(=O)n(-c2ccccc2)n1C`, the max response, negative = inhibition was inactive: -17.3%.
For `O=C(NCN1CCCCC1)c1cnccn1`, the max response, negative = inhibition was inactive: -8.31%.
In the case of `S=C(Nc1ccc(N2CCOCC2)cc1)Nc1ccc2nc(-c3ccco3)c(-c3ccco3)nc2c1`, the Potency is reported as inconclusive: 18.9 µM [inhibitor, partial curve].
For `Cc1ccc(C(=O)Nc2ccccc2C(=O)NC(Cc2c[nH]c3ccccc23)C(=O)O)cc1` (stereo unspecified), the max response, negative = inhibition was inconclusive: -31.9% [inhibitor].
In the case of `S=c1nc(-c2ccccc2)[nH]c2ccc(Br)cc12`, the max response, negative = inhibition is reported as inconclusive: -28.3% [inhibitor].
`COc1ccc(-c2nn(-c3ccccc3)cc2C(=O)N2c3ccc(C)cc3C3CN(C)CCC32)cc1` (stereo unspecified) was tested, and the max response, negative = inhibition was inactive: 1.93%.
For `Fc1ccccc1OCCCCSc1ncccn1`, the max response, negative = inhibition was inconclusive: -35.3% [inhibitor].
`CCOC(=O)c1cc(C#N)c(N2CCN(C(=O)c3ccccc3)CC2)nc1C(F)(F)F` was tested, and the max response, negative = inhibition was inactive: -2.38%.
In the case of `Cc1cccc(-c2nc(CS(=O)CC(=O)N3CC(C)CC(C)C3)c(C)o2)c1` (stereo unspecified), the max response, negative = inhibition is reported as inconclusive: -32.2% [inhibitor].
For `COc1ccc(CNC2CCCc3ccccc32)cc1OC` (stereo unspecified), the Potency was inconclusive: 23.8 µM [inhibitor, single point].
For `COc1cccc(C2CC(c3ccccc3)=NN2S(=O)(=O)c2ccccc2)c1OC` (stereo unspecified), the Potency was inconclusive: 21.2 µM [inhibitor, single point].
In the case of `Cc1cc2nc3c(=O)[nH]c(=O)[nH]c3nc2c([N+](=O)[O-])c1N`, the Potency is reported as active: 13.4 µM.
For `O=C(NC1CCCCC1)N(Cc1nc2ccccc2c(=O)[nH]1)C1CCCCC1`, the max response, negative = inhibition was inactive: -1.57%.
In the case of `CCC(=O)Nc1ccc(N2CCOCC2)c(S(=O)(=O)Nc2ccc(Cl)cc2)c1`, the Potency is reported as active: 7.52 µM.
With `CN(Cc1cnn(C)c1)Cc1nc(COc2ccccc2)no1` the Potency was inconclusive: 18.9 µM [inhibitor, partial curve].
With `O=C(Nc1cccc(F)c1)C1CCN(C(=O)c2ccccc2Cl)CC1` the Potency was inconclusive: 9.47 µM [inhibitor, partial curve].
`COc1ccc(-c2nc(CSCC(=O)NCCCN3CCCC3=O)c(C)o2)cc1` was tested, and the max response, negative = inhibition was inactive: -0.7%.
In the case of `CCc1ccc(/C=C2/SC(=S)N(CCC(=O)Nc3cccc(C(=O)O)c3)C2=O)cc1`, the Potency is reported as inconclusive: 26.7 µM [inhibitor, single point].
With `Cc1cc(C)n2c(SCC(=O)Nc3ccccc3C#N)nnc2n1` the max response, negative = inhibition was inactive: -4.7%.
In the case of `COc1ccc(-c2nnc(N(C)C(=O)C3CCOC3)s2)cc1` (stereo unspecified), the max response, negative = inhibition is reported as inconclusive: -33.4% [inhibitor].
In the case of `CN1CCO/C1=C(\C(Cl)=C(Cl)Cl)[N+](=O)[O-]`, the max response, negative = inhibition is reported as inconclusive: -30.6% [inhibitor].
In the case of `C/C=C(\C)C(=O)N1CCC(C(=O)c2ccccc2)CC1`, the max response, negative = inhibition is reported as inactive: 0.0543%.
With `O=C(Cc1cc(=O)[nH][nH]1)N/N=C/C=C/c1ccccc1` the Potency was inconclusive: 15 µM [inhibitor, partial curve, poor fit].
For `CCOC(=O)C1=C(C)Nc2ccc(C)cc2S1`, the Potency was inconclusive: 26.7 µM [inhibitor, single point].
With `COc1ccc(-c2nnc(NC(=O)c3ccc(S(=O)(=O)N4COCC4(C)C)cc3)o2)cc1` the Potency was inconclusive: 23.8 µM [inhibitor, partial curve].
For `O=C(NC1CCCC1)C(c1ccccn1)N(C(=O)c1csnn1)C1CCCCC1` (stereo unspecified), the Potency was active: 26.7 µM.
With `COCCOC(=O)C(CC(=O)O)NCc1ccco1` (stereo unspecified) the max response, negative = inhibition was inactive: -3.31%.
In the case of `Cc1ccc(C)c(S(=O)(=O)NCCOC(=O)Nc2sc(=S)n(C)c2C)c1`, the Potency is reported as inconclusive: 26.7 µM [inhibitor, single point].
For `CCS(=O)(=O)c1ccc(-c2csc(-c3ccc(Cl)cc3)n2)c(Cl)c1Cl`, the Potency was inconclusive: 21.2 µM [inhibitor, partial curve].
For `O=C(Cc1ccc(Cl)cc1)N1CCN(c2ccc(F)cc2)CC1`, the Potency was inconclusive: 23.8 µM [inhibitor, single point].
